# These are yes or no findings as the source states them, for the method shown. Some entries that bind do so weakly or less than the wild type.
# T1: Human CD73 (as used in the hybridoma screening of Table 1) (human) (UniProt P21589)
# T1 sequence (looked up): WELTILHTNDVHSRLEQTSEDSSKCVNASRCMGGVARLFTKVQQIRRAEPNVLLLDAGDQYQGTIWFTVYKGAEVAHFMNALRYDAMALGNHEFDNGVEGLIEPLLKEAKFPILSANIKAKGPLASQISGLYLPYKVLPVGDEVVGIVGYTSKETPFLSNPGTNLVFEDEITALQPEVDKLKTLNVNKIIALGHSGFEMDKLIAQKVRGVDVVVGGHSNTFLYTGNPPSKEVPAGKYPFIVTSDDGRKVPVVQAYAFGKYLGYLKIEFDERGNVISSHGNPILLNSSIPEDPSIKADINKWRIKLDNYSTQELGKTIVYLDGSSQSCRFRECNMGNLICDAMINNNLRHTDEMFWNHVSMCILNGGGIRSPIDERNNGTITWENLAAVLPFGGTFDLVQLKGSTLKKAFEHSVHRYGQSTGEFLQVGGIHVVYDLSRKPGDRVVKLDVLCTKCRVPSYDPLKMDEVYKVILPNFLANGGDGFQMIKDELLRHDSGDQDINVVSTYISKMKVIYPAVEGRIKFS
# Biological target: T1, Human CD73 (as used in the hybridoma screening of Table 1) (human)
# Test: hybridoma screen (FACS, Biacore)
row,binding,Binder
1,binds,"124A9 murine monoclonal antigen-binding protein (hybridoma clone 124A9) (antibody, V domains shown) VH: QVQLQQPGAELVKPGASVKLSCKASGYTFTSYWIHWVKQRPGQGLDWIGMIHPNSGSTYYNEKFKSKATLTVDKSSSTAYMQLSSLTSEDSAVYYCARYYGSDYEWYFDVWGTGTTVTVSS VL: DIVMTQSQKFMSTSVGDRVSITCKASQNVRTAVVWYQQNPGQSPKALIYLASNRHTGVPDRFTGSGSGTDFTLTISNVHSEDLADYFCLQHWNYPYTFGGGTKLEIK"

# Biological target: Cynomolgus CD73 protein (Novoprotein, item No. CI21) (cynomolgus)
# Test: SPR, Biacore T200, protein A capture
row,binding,Binder
1,binds,"900726 (humanized anti-CD73 antigen-binding protein) (antibody, V domains shown) VH: QVQLVQSGAEVKKPGASVKLSCKASGYTFTSYWIHWVRQAPGQGLEWIGMIHPNSGSTYYNEKFKGRATLTVDKSTSTAYMELSSLRSEDTAVYYCARYYGSDYEWYFDVWGQGTTVTVSS VL: DIQMTQSPSSLSASVGDRVTITCKASQNVRTAVVWYQQKPGKAPKALIYLASNRHTGVPDRFSGSGSGTDFTLTISSLQPEDFATYYCLQHWNYPYTFGQGTKLEIK"
2,binds,"900567 (human-mouse chimeric anti-CD73 antigen-binding protein expressed from 124A9 variable regions) (antibody, V domains shown) VH: QVQLQQPGAELVKPGASVKLSCKASGYTFTSYWIHWVKQRPGQGLDWIGMIHPNSGSTYYNEKFKSKATLTVDKSSSTAYMQLSSLTSEDSAVYYCARYYGSDYEWYFDVWGTGTTVTVSS VL: DIVMTQSQKFMSTSVGDRVSITCKASQNVRTAVVWYQQNPGQSPKALIYLASNRHTGVPDRFTGSGSGTDFTLTISNVHSEDLADYFCLQHWNYPYTFGGGTKLEIK"

# Further lines, the binder ahead of its results:
row,Binder,binding
1,"900725 (humanized anti-CD73 antigen-binding protein) (antibody, V domains shown) VH: QVQLVQSGAEVKKPGASVKLSCKASGYTFTSYWIHWVRQAPGQGLEWIGMIHPNSGSTYYNEKFKGRATLTVDKSTSTAYMELSSLRSEDTAVYYCARYYGSDYEWYFDVWGQGTTVTVSS VL: DIQMTQSPSSMSASVGDRVTITCKASQNVRTAVVWYQQKPGKAPKALIYLASNRHTGVPDRFSGSGSGTDFTLTISSLQPEDFATYFCLQHWNYPYTFGQGTKLEIK",binds
2,"900727 (humanized anti-CD73 antigen-binding protein) (antibody, V domains shown) VH: QVQLVQSGAEVKKPGASVKVSCKASGYTFTSYWIHWVRQAPGQGLEWIGMIHPNSGSTYYAQKFQGRVTITVDKSTSTAYMELSSLRSEDTAVYYCARYYGSDYEWYFDVWGQGTTVTVSS VL: DIQMTQSPSSMSASVGDRVTITCKASQNVRTAVVWYQQKPGKAPKALIYLASNRHTGVPDRFSGSGSGTDFTLTISSLQPEDFATYFCLQHWNYPYTFGQGTKLEIK",binds
3,"900728 (humanized anti-CD73 antigen-binding protein) (antibody, V domains shown) VH: QVQLVQSGAEVKKPGASVKVSCKASGYTFTSYWIHWVRQAPGQGLEWIGMIHPNSGSTYYNEKFQGRVTMTVDKSTSTAYMELSSLRSEDTAVYYCARYYGSDYEWYFDVWGQGTTVTVSS VL: DIQMTQSPSSLSASVGDRVTITCKASQNVRTAVVWYQQKPGKAPKALIYLASNRHTGVPDRFSGSGSGTDFTLTISSLQPEDFATYYCLQHWNYPYTFGQGTKLEIK",binds
